According to paper PMC11750091:
These are yes or no findings as the source states them, for the method shown. Some entries that bind do so weakly or less than the wild type. Where a sequence is shown, tags or fusion partners need not be part of it.

Biological target: T1, BD-PoFbx23 (CDS of fbx23 in pGBKT7) (Penicillium oxalicum) (UniProt S7ZS07)
T1 sequence: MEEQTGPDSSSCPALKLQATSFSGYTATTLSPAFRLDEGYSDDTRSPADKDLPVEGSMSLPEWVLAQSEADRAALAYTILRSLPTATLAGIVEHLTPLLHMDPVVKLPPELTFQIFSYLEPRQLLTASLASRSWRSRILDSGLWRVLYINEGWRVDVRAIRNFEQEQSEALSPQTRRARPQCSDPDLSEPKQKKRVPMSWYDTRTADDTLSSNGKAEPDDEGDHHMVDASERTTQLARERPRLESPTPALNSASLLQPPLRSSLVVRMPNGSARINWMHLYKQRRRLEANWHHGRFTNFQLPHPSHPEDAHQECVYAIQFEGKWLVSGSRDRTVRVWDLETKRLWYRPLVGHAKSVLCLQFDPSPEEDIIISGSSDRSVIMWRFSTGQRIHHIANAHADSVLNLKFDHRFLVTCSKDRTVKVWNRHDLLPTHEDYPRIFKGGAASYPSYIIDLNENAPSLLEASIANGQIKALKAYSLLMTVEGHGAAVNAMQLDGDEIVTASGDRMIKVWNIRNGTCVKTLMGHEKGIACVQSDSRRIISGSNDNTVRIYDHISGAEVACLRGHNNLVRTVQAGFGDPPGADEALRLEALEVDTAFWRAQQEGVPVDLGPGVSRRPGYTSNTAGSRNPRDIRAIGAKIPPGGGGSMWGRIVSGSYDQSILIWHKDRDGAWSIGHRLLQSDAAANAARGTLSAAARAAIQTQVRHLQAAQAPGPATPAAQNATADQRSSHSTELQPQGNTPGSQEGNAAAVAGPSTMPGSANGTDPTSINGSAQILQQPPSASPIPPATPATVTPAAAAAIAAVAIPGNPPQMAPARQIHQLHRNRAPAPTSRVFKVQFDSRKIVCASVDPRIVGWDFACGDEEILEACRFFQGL
Experiment: two-hybrid; Y2H Gold-BD-PoFbx23 mated with Y187-AD-PoAce1 fragments; growth on QDO (SD-Ade/-His/-Leu/-Trp) and QDO/X-alpha-gal/Aba

B1: AD-PoAce1 (1-396 aa) (domain or fragment, UniProt S8AYJ0 1-396)
chain: MASTQFESTRVHPRRRPVVNTSSNLAKTDEEPTASKLQLKKGETFNAPTSPPSAESDPVMNIRSLPHRSPTSLDALAASEESMSSIFERLNLDENSEGQGASTDNQSAGASTLNSAADKDEHNPFPSVKKVSTQQEDHDHDSDSGLGSSVSDCDSMSEISEQDNHDASVEQDSTITSPIAASQGTNPRHQLPLSACKQIERYLLVPLLKEPKLEDFHPLVRSVPTRIANKQIVCLRDLEKILLWLAPKFSKSRSSYLSFCEYTIQCLHTSVSHLNAKDQRLPADRPYTNGYFLDLVTQVRRYAAMVQASKAEALQSNKDKPSVPPASLQGGLSVNGCAAELVIMTDGQVISLATGKPFEGAVSIKRAHETVDEVTDEGVVRSMARRKKNAPPMDIN
Q: How did the binding turn out when B1 was run?
A: The binding was “binds”.

B2: AD-PoAce1 (484-816 aa) (domain or fragment, UniProt S8AYJ0 484-815)
chain: GWKYNRQKSNSRARGSKSKRGTSLRAASHQDSPSTPDAMTPASGQTDFNTPSLGPTPSPCEPSLIYSDGSSFINFADPPAPVPGNGYSAFYNASVVNQPEAAMSYQASPEGTAPSYQTPRTYQTSPDATMAHDFQFTAEDIANLGSLGSLEAQFAMGNPNELVSHLNMHQSIVASMSSVPSASSVPDLSGSVSASQGNSPCAPAASGGNLCDNIDWTRVEYSLQNNINDLHGGNDNGNDQAMMMSGLSPTAQGHLMLFSPDNGLAAANIGASFPYGGQDMQQNLQDFSGQELQDFTLFETPMPTYPAANLTDPAFNWVGGPWPGMDKAIAFD
Q: Which binding does the source give for B2 here?
A: The binding was “binds”.
